The supplement of paper PMC9135407
Values joined by “and” are separate entries in the source; they are usually repeats but may differ in a detail not shown here. Equal values may be shown once. Where a name gives a salt, the structure may show the parent alone. ± gives the standard deviation of the averaged measurements. Some of the results follow. Baselines shift from plate to plate; read single values as rough.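 Assay uses culture-activated primary human stellate myofibroblasts; lipid droplet recovery indicates inactivation. Measured: proportion of Hoechst-counted cells over a plate-specific Bodipy cutoff, duplicate wells, DMSO and nortriptyline as per-plate negative and positive controls. A hit scores, control-normalized, above the plate's top-tenth-percentile nortriptyline wells or ranks among its three best wells. Final well concentrations not reported.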

Test system: primary human hepatic stellate cells (donor 1)
Assay: percent Bodipy-positive cells; higher = more lipid droplet accumulation
Conditions: 48 h
Description: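 Primary lipid accumulation screen in primary human hepatic stellate cell myofibroblasts (donor 1, passage 8) in 384-well plates. 100 nL of library compound was pin-transferred into 30 µL medium in duplicate, and cells were treated for 48 h. The 'Scaled' score combines distance from plate baseline, toxicity and reproducibility penalties, and is normalised to nortriptyline (positive) and DMSO (negative) controls on each plate. A hit is defined as scaled >0.85 or among the top 3 wells per plate.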

[1] = library stock concentration: 10 mM
[2] = library stock concentration: 3.33 mM
[3] = library stock concentration: 2 mM
[4] = library stock concentration: 400 uM
[5] = library stock concentration: 80 uM
[6] = library stock concentration: 1 mM

## COc1cccc2c1C(=O)c1c(O)c3c(c(O)c1C2=O)C[C@@](O)(C(C)=O)C[C@@H]3O[C@H]1C[C@H](N)[C@H](O)[C@H](C)O1 [Daunorubicin hydrochloride]
  percent Bodipy-positive cells: 100%
[1]
  percent Bodipy-positive cells: 100%

## CNC(=O)c1cc(Oc2ccc(NC(=O)Nc3ccc(Cl)c(C(F)(F)F)c3)cc2)ccn1 [Sorafenib]
[2]
  percent Bodipy-positive cells: 26.4 ± 27%
[1]
  percent Bodipy-positive cells: 11.7 ± 1.1%

## CNC(=O)c1cc(Oc2ccc(NC(=O)Nc3ccc(Cl)c(C(F)(F)F)c3)cc2)ccn1 [Sorafenib  (Nexavar, BAY43-9006) (2 mM)]
[3]
  percent Bodipy-positive cells: 33.9 ± 0.61%

## CNC(=O)c1cc(Oc2ccc(NC(=O)Nc3ccc(Cl)c(C(F)(F)F)c3)cc2)ccn1 [Sorafenib Tosylate]
[2]
  percent Bodipy-positive cells: 13.1 ± 2.7%
[1]
  percent Bodipy-positive cells: 33.69 ± 0.11%

## CNC(=O)c1cc(Oc2ccc(NC(=O)Nc3ccc(Cl)c(C(F)(F)F)c3)cc2)ccn1 [Sorafenib  (Nexavar, BAY43-9006) (0.4 mM)]
[4]
  percent Bodipy-positive cells: 25.1 ± 7.2%

## CNC(=O)c1cc(Oc2ccc(NC(=O)Nc3ccc(Cl)c(C(F)(F)F)c3)cc2)ccn1
[5]
  percent Bodipy-positive cells: 14.5 ± 1.3%
[4]
  percent Bodipy-positive cells: 26.6 ± 11%
[3]
  percent Bodipy-positive cells: 8.44 ± 3.4%
[1]
  percent Bodipy-positive cells: 81.9 ± 18%

## O=C(O)CCC/C=C\C[C@@H]1[C@@H](/C=C/[C@@H](O)COc2ccccc2)[C@H](O)C[C@@H]1O [16-phenoxy tetranor Prostaglandin F2.alpha.]
[6]
  percent Bodipy-positive cells: 20.5 ± 3.5%

## CNC(=O)c1ccccc1Nc1cc(Nc2ccc(N3CCOCC3)cc2OC)ncc1C(F)(F)F
[5]
  percent Bodipy-positive cells: 4.29 ± 2.2%
[4]
  percent Bodipy-positive cells: 7.08 ± 1.3%
[3]
  percent Bodipy-positive cells: 3.65 ± 0.69%
[1]
  percent Bodipy-positive cells: 4.77 ± 0.39%

## O=C(Nc1cccc(C(=O)Nc2ccc(S(=O)(=O)O)c3cc(S(=O)(=O)O)cc(S(=O)(=O)O)c23)c1)Nc1cccc(C(=O)Nc2ccc(S(=O)(=O)O)c3cc(S(=O)(=O)O)cc(S(=O)(=O)O)c23)c1
[1]
  percent Bodipy-positive cells: 13.3 ± 3.9%

## Cc1ccc(S(=O)(=O)Cc2nc(-c3ccc(C(=O)NCc4cccnc4)cc3)oc2C)cc1
[2]
  percent Bodipy-positive cells: 24 ± 0.99%
[1]
  percent Bodipy-positive cells: 24.9 ± 1.5%

## C=CC(=O)Nc1cc(Nc2nccc(-c3cn(C)c4ccccc34)n2)c(OC)cc1N(C)CCN(C)C
[2]
  percent Bodipy-positive cells: 99.57 ± 0.6%

## Cc1cn([C@H]2C=C[C@@H](CO)O2)c(=O)[nH]c1=O
[1]
  percent Bodipy-positive cells: 14.3% and 30.5%

## Cc1cn([C@H]2C=C[C@@H](CO)O2)c(=O)[nH]c1=O [Stavudine (d4T)]
[2]
  percent Bodipy-positive cells: 16 ± 11%
[1]
  percent Bodipy-positive cells: 18.9 ± 0.2%

## CC(=O)NS(=O)(=O)c1ccc(N)cc1 [Sulfacetamide]
Library stock concentration: 9.3 mM
  percent Bodipy-positive cells: 21 ± 12%
[1]
  percent Bodipy-positive cells: 16.9% and 26.6%

## CC(=O)NS(=O)(=O)c1ccc(N)cc1 [Sulfacetamide sodic hydrate]
  percent Bodipy-positive cells: 34.2 ± 8.7%

## CC(=O)NS(=O)(=O)c1ccc(N)cc1 [Sulfacetamide Sodium]
[2]
  percent Bodipy-positive cells: 12.1 ± 2.5%
[1]
  percent Bodipy-positive cells: 19.1 ± 3.9%

## CCCCCCCC/C=C\CCCCCCCC(=O)N[C@@H](CO)C(=O)O [N-Oleoyl-L-Serine]
[6]
  percent Bodipy-positive cells: 14 ± 4.5%

## C=C1CC[C@@H]2[C@](C)(CO)[C@H](O)CC[C@@]2(C)[C@@H]1C/C=C1/C(=O)OC[C@H]1O [Andrographolide]
[2]
  percent Bodipy-positive cells: 16.4 ± 2.6%
[1]
  percent Bodipy-positive cells: 62.8 ± 5.7%

## Nc1ncnc2c1nc(Br)n2C1OC2COP(=O)(O)O[C@@H]2C1O (some centres not stated) [8-Bromo-cAMP sodium]
[1]
  percent Bodipy-positive cells: 42.6 ± 3%

## OCc1ccccc1O[C@@H]1O[C@H](CO)[C@@H](O)[C@H](O)[C@H]1O [Salicin]
[2]
  percent Bodipy-positive cells: 13.2 ± 5%
Library stock concentration: 7 mM
  percent Bodipy-positive cells: 16.5 ± 0.71%
[1]
  percent Bodipy-positive cells: 16.6% and 36.6%

## CCCCCCCCCCCCC/C=C/[C@@H](O)[C@H](CO)NC(=O)CCCCC [C-6 Ceramide]
[6]
  percent Bodipy-positive cells: 11.2 ± 5.6%

## COc1ccc(NS(=O)(=O)c2ccc(I)cc2)cc1N1CCN(C)CC1
[1]
  percent Bodipy-positive cells: 41.8 ± 3%

## CCc1cc(Cl)c(OC)c(C(=O)NC[C@@H]2CCCN2CC)c1O.Cl [Eticlopride hydrochloride]
[1]
  percent Bodipy-positive cells: 59.9 ± 1%

## CN1C(CCl)Nc2cc(Cl)c(S(N)(=O)=O)cc2S1(=O)=O (configuration not stated)
[1]
  percent Bodipy-positive cells: 44.9 ± 9.9%

## CN1C(CCl)Nc2cc(Cl)c(S(N)(=O)=O)cc2S1(=O)=O (configuration not stated) [Methyclothiazide]
[2]
  percent Bodipy-positive cells: 12.4 ± 4.6%
[1]
  percent Bodipy-positive cells: 37.5 ± 19%

## C=CC1=C(C(=O)O)N2C(=O)[C@@H](NC(=O)/C(=N\O)c3csc(N)n3)[C@H]2SC1
[1]
  percent Bodipy-positive cells: 7.19 ± 2%

## C=CC1=C(C(=O)O)N2C(=O)[C@@H](NC(=O)/C(=N\O)c3csc(N)n3)[C@H]2SC1 [Cefdinir]
Library stock concentration: 5.1 mM
  percent Bodipy-positive cells: 8.95 ± 1.6%
[1]
  percent Bodipy-positive cells: 42.6 ± 8.7%

## Nc1cc(N2CCCCC2)nc(N)[n+]1[O-] [Minoxidil]
  percent Bodipy-positive cells: 23.4 ± 3.2%
Library stock concentration: 9.6 mM
  percent Bodipy-positive cells: 13.9% and 3.25%

## Nc1ncnc2c1ncn2[C@@H]1O[C@H](COP(=O)(O)OP(=O)(O)OP(=O)(O)OP(=O)(O)OC[C@@H]2O[C@H](n3cnc4c(N)ncnc43)C(O)[C@@H]2O)[C@H](O)C1O (some centres not stated) [P1,P4-Di(adenosine-5')tetraphosphate triammonium]
[1]
  percent Bodipy-positive cells: 49.6 ± 1.2%

## CS(=O)(=O)Nc1c(O)ccc2c1CCCC2C1=NCCN1 (configuration not stated)
[1]
  percent Bodipy-positive cells: 10.44 ± 0.037%

## COc1ccc2cc([C@H](C)C(=O)O)ccc2c1 [(S)-Naproxen]
[6]
  percent Bodipy-positive cells: 6.95 ± 2.1%

## COc1ccc2cc([C@H](C)C(=O)O)ccc2c1 [Naproxen sodium]
[1]
  percent Bodipy-positive cells: 7.2 ± 1.4%

## COc1ccc2cc([C@H](C)C(=O)O)ccc2c1 [Naproxen]
  percent Bodipy-positive cells: 27.6 ± 1.4%
[2]
  percent Bodipy-positive cells: 6.48 ± 3.1%
Library stock concentration: 8.7 mM
  percent Bodipy-positive cells: 7.51 ± 2.1%
[1]
  percent Bodipy-positive cells: 16.9 ± 1.7%

## COc1ccc2cc([C@H](C)C(=O)O)ccc2c1 [(-)-Naproxen sodium]
[1]
  percent Bodipy-positive cells: 44.1 ± 12%

## COc1ccc2cc([C@H](C)C(=O)O)ccc2c1
[1]
  percent Bodipy-positive cells: 8.61 ± 2%
